The other results are listed elsewhere or left out. The calls rarely recur for the same compound in another form.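 Kinases, fused to nanoluciferase, were expressed in K562 cells; luminescence was measured every 4 h from 2 to 18 h as percent of control (DMSO = 100%, positive control = 0%). A time point is decreased if signal falls significantly (2 sigma). Hits were called by the authors by a rule that is not shown; the count of time points alone does not decide it.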
Experiments:
Assay in all cases: number of time points (of 5) at which kinase-Nluc abundance scored as decreased, DMSO-normalised (count); higher = more persistent destabilization
[1] = compound: COc1cc2c(-c3cnn4cc(N5CCC(N6CCN(C)CC6)CC5)cnc34)ccnc2cc1F; settings: 10 µM; K562; 2-18 h
Cediranib (maleate) = compound: COc1cc2c(Oc3ccc4[nH]c(C)cc4c3F)ncnc2cc1OCCCN1CCCC1 [Cediranib (maleate)]; settings: 2.5 µM; K562; 2-18 h
Cediranib = compound: COc1cc2c(Oc3ccc4[nH]c(C)cc4c3F)ncnc2cc1OCCCN1CCCC1 [Cediranib]; settings: 2.5 µM; K562; 2-18 h
[2] = compound: COc1cc2c(cc1OC)-c1c(C)c3ccc(OC)c(OC)c3c[n+]1CC2 [Dehydrocorydaline (chloride)]; settings: 10 µM; K562; 2-18 h
Dehydrocorydaline = compound: COc1cc2c(cc1OC)-c1c(C)c3ccc(OC)c(OC)c3c[n+]1CC2 [Dehydrocorydaline]; settings: 10 µM; K562; 2-18 h
[3] = compound: COc1cc2nccc(Nc3cc(OC)c(OC)c(OC)c3)c2cc1OC [GAK inhibitor 49 (hydrochloride)]; settings: 10 µM; K562; 2-18 h
GAK inhibitor 49 = compound: COc1cc2nccc(Nc3cc(OC)c(OC)c(OC)c3)c2cc1OC [GAK inhibitor 49]; settings: 10 µM; K562; 2-18 h
Cabozantinib (S-malate) = compound: COc1cc2nccc(Oc3ccc(NC(=O)C4(C(=O)Nc5ccc(F)cc5)CC4)cc3)c2cc1OC [Cabozantinib (S-malate)]; settings: 10 µM; K562; 2-18 h
Cabozantinib = compound: COc1cc2nccc(Oc3ccc(NC(=O)C4(C(=O)Nc5ccc(F)cc5)CC4)cc3)c2cc1OC [Cabozantinib]; settings: 2.5 µM; K562; 2-18 h
KN-93 (hydrochloride) = compound: COc1ccc(S(=O)(=O)N(CCO)c2ccccc2CN(C)C/C=C/c2ccc(Cl)cc2)cc1 [KN-93 (hydrochloride)]; settings: 2.5 µM; K562; 2-18 h
KN-93 (phosphate) = compound: COc1ccc(S(=O)(=O)N(CCO)c2ccccc2CN(C)C/C=C/c2ccc(Cl)cc2)cc1 [KN-93 (phosphate)]; settings: 2.5 µM; K562; 2-18 h
KN-92 (hydrochloride) = compound: COc1ccc(S(=O)(=O)Nc2ccccc2CN(C)C/C=C/c2ccc(Cl)cc2)cc1 [KN-92 (hydrochloride)]; settings: 2.5 µM; K562; 2-18 h
KN-92 (phosphate) = compound: COc1ccc(S(=O)(=O)Nc2ccccc2CN(C)C/C=C/c2ccc(Cl)cc2)cc1 [KN-92 (phosphate)]; settings: 2.5 µM; K562; 2-18 h
AX-024 hydrochloride = compound: COc1ccc2c(c1)C(c1ccc(F)cc1)=C(CN1CCCC1)CO2 [AX-024 hydrochloride]; settings: 10 µM; K562; 2-18 h
[4] = compound: COc1ccc2c(c1)C(c1ccc(F)cc1)=C(CN1CCCC1)CO2; settings: 10 µM; K562; 2-18 h
Ilaprazole (sodium) = compound: COc1ccnc(C[S+]([O-])c2nc3cc(-n4cccc4)ccc3[nH]2)c1C [Ilaprazole (sodium)]; settings: 10 µM; K562; 2-18 h
Ilaprazole = compound: COc1ccnc(C[S+]([O-])c2nc3cc(-n4cccc4)ccc3[nH]2)c1C [Ilaprazole]; settings: 10 µM; K562; 2-18 h
PLX5622 (hemifumarate) = compound: COc1ncc(F)cc1CNc1ccc(Cc2c[nH]c3ncc(C)cc23)c(F)n1 [PLX5622 (hemifumarate)]; settings: 10 µM; K562; 2-18 h
[5] = compound: COc1ncc(F)cc1CNc1ccc(Cc2c[nH]c3ncc(C)cc23)c(F)n1; settings: 10 µM; K562; 2-18 h
[6] = compound: CS(=O)(=O)N1CCN(Cc2cc3nc(-c4cccc5[nH]ncc45)nc(N4CCOCC4)c3s2)CC1 [Pictilisib (dimethanesulfonate)]; settings: 10 µM; K562; 2-18 h

Protein sequences, listed by entry. Tags and fused reporters are not part of them. Lines headed by an entry give the natural chain unless they say otherwise; changes in a name come on top.
UniProt Q9UM73: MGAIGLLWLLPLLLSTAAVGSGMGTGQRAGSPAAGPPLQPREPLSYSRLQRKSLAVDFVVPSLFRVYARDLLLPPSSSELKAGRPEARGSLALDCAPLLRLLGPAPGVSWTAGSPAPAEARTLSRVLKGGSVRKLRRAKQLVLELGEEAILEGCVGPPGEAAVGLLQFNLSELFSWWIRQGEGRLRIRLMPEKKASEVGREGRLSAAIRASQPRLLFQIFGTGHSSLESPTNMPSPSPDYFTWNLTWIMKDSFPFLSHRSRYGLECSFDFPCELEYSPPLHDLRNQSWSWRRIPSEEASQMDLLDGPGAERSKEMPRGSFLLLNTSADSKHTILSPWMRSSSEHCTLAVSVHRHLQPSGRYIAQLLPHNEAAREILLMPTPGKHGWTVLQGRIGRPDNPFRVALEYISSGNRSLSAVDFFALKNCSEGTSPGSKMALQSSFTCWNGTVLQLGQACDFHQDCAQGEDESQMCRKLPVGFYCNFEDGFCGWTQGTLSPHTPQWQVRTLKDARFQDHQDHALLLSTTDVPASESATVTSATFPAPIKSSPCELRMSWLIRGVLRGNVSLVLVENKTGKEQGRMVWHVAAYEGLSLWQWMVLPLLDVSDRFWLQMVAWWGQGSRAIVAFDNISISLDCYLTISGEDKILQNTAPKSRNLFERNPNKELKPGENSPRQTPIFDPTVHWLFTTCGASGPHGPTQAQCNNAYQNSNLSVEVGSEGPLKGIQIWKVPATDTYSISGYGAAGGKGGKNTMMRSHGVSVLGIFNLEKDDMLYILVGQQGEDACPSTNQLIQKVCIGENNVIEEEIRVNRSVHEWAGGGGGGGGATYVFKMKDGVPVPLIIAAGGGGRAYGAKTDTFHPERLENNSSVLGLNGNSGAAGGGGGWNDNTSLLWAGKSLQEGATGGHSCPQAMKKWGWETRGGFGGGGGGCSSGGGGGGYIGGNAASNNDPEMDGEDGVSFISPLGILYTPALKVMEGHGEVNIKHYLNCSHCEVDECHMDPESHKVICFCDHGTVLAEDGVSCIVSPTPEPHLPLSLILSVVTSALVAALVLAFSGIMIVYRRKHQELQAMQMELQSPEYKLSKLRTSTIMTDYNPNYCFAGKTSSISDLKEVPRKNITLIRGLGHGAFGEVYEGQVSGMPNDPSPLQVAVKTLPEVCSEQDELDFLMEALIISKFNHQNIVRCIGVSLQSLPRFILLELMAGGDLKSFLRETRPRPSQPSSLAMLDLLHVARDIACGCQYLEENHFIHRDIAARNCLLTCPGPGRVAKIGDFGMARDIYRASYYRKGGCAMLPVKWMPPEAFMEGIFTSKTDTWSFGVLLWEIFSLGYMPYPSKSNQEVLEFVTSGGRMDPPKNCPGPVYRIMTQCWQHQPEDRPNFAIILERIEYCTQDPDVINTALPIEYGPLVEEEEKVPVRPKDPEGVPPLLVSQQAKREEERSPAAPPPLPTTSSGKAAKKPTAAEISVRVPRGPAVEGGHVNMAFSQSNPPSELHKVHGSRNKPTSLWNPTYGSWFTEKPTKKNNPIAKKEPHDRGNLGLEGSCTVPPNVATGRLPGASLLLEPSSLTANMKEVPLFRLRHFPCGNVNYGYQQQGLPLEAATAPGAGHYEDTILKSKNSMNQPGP
UniProt Q92630: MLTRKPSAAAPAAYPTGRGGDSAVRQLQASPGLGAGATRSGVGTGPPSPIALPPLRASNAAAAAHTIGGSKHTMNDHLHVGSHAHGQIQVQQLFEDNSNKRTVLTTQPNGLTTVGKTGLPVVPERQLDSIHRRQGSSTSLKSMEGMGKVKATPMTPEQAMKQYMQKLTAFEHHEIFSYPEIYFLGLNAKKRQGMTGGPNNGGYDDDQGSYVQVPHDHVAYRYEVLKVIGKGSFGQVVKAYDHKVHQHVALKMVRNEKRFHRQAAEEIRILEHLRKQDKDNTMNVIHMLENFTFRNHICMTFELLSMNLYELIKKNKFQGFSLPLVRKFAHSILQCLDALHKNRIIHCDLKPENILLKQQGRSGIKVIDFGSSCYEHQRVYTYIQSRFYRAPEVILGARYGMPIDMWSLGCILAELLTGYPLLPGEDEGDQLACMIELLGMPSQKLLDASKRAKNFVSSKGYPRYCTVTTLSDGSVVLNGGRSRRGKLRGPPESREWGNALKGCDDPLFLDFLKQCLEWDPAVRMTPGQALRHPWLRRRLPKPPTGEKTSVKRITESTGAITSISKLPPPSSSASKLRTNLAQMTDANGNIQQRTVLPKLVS
UniProt P28482, whole entry: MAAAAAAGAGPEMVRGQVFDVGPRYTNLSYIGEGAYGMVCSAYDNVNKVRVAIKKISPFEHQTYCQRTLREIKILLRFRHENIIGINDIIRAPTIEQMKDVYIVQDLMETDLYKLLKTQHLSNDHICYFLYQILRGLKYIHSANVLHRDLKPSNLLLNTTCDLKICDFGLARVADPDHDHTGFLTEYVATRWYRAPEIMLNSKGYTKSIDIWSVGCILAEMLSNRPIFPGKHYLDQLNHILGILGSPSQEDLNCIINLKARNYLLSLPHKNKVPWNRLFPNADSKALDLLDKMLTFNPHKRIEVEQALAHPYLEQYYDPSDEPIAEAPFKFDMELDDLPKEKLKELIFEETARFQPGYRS
UniProt P11362, whole entry, looked up: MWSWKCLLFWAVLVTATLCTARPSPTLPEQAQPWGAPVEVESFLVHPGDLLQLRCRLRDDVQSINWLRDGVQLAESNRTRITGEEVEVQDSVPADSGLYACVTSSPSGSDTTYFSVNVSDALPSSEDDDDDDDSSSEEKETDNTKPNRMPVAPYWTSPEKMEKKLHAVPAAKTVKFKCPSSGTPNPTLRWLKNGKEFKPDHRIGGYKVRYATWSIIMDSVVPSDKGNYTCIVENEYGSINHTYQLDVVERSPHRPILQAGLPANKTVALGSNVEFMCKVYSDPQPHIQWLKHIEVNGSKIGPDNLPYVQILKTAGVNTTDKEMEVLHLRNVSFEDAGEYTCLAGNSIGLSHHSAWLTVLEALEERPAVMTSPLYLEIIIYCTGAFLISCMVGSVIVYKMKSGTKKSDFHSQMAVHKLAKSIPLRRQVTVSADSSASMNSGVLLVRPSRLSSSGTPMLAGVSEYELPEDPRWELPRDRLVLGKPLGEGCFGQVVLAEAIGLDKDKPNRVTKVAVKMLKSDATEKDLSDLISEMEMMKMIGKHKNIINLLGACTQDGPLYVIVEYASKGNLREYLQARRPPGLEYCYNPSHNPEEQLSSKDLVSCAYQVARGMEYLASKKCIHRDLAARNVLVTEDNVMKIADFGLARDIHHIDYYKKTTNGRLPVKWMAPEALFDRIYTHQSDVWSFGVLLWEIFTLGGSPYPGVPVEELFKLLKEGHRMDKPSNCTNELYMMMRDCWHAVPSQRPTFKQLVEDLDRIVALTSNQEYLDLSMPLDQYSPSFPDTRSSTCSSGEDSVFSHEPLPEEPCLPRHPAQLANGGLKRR
UniProt Q15418, whole entry: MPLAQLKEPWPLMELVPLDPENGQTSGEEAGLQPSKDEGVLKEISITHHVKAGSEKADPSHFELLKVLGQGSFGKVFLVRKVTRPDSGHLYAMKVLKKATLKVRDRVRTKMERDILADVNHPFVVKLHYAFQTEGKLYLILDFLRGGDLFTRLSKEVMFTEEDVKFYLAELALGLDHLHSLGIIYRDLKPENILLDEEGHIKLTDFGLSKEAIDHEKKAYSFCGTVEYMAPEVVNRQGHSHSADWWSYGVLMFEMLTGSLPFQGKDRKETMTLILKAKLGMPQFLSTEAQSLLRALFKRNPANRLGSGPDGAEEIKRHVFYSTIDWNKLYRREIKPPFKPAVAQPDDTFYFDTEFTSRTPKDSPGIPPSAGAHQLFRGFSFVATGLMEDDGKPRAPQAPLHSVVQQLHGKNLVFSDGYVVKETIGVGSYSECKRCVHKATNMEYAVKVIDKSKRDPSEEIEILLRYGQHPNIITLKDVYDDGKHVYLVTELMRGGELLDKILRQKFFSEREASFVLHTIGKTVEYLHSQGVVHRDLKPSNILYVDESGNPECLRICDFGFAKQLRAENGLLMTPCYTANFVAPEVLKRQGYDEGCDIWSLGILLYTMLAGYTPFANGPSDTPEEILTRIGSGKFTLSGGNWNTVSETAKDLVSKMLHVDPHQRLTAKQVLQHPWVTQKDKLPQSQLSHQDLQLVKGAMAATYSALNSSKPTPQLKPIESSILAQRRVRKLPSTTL
UniProt Q05397, whole entry, looked up: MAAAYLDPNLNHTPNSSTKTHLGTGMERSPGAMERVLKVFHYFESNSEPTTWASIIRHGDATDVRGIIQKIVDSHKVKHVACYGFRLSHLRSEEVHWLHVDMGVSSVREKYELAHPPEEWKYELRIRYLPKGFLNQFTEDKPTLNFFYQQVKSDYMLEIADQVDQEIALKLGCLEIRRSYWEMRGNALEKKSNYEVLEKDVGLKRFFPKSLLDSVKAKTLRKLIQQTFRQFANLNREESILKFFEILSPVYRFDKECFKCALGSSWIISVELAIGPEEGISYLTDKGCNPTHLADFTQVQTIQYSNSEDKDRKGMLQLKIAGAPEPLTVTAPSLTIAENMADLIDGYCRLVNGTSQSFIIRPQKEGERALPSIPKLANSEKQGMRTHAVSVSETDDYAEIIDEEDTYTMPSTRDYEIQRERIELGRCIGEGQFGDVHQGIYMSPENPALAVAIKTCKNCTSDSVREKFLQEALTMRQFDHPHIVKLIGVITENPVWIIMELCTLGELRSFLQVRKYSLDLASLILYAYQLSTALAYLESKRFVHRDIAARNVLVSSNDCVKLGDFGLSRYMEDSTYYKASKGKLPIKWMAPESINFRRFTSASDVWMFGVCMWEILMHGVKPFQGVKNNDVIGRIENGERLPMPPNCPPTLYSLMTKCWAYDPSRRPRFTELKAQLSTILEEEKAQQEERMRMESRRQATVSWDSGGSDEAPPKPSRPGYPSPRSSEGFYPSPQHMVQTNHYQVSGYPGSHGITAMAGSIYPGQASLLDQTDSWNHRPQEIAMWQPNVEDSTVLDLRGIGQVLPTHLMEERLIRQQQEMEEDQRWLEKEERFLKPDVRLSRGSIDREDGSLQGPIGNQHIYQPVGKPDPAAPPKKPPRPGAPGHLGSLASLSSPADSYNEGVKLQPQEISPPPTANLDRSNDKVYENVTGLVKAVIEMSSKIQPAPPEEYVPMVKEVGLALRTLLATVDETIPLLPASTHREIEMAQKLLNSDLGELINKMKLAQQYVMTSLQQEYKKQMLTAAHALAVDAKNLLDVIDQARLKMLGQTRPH
UniProt Q9Y6E0: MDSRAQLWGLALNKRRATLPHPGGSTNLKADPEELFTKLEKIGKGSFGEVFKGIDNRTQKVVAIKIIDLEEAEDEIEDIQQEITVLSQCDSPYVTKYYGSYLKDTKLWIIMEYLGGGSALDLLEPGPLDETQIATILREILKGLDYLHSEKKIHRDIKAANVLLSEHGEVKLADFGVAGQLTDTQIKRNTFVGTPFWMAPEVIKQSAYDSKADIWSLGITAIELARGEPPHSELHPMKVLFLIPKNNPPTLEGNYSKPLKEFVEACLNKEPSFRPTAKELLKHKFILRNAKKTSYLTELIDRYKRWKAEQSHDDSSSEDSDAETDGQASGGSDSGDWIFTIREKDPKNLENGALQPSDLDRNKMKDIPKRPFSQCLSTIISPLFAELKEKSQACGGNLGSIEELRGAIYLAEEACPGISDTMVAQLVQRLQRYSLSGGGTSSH
UniProt Q00526: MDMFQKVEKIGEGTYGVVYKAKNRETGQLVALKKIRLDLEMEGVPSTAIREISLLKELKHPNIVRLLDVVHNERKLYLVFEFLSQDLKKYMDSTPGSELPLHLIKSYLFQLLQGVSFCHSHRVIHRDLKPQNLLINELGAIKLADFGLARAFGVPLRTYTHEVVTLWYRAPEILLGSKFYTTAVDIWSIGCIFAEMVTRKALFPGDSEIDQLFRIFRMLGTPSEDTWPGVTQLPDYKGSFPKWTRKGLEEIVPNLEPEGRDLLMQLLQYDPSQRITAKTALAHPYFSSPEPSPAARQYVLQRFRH
UniProt P07947, whole entry, looked up: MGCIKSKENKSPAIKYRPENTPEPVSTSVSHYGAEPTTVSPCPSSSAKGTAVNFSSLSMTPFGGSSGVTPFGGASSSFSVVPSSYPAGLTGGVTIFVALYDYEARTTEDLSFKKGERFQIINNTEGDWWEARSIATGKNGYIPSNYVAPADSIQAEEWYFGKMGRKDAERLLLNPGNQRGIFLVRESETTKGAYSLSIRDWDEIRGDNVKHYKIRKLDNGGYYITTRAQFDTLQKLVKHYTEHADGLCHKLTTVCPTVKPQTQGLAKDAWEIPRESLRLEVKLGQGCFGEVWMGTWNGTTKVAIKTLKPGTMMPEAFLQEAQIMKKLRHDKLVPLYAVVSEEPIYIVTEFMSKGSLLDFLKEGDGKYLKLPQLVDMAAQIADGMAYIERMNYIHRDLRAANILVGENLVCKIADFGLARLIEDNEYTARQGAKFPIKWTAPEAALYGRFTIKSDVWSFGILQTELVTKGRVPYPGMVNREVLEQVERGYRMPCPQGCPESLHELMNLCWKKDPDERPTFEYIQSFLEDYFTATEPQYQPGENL

Target	number of time points [1]	number of time points (Cediranib (maleate))	number of time points (Cediranib)	number of time points [2]	number of time points (Dehydrocorydaline)	number of time points [3]	number of time points (GAK inhibitor 49)	number of time points (Cabozantinib (S-malate))	number of time points (Cabozantinib)	number of time points (KN-93 (hydrochloride))	number of time points (KN-93 (phosphate))	number of time points (KN-92 (hydrochloride))	number of time points (KN-92 (phosphate))	number of time points (AX-024 hydrochloride)	number of time points [4]	number of time points (Ilaprazole (sodium))	number of time points (Ilaprazole)	number of time points (PLX5622 (hemifumarate))	number of time points [5]	number of time points [6]
ERBB3 (UniProt P21860)	0	0	0	0	0	0	2	3	3	0	0	0	0	0	0	0	0	0	0	0
RAF1_S257L (clone: RAF1_mut) (UniProt P04049)	0	0	0	0	0	0	3	4	0	0	0	0	0	0	0	0	0	0	0	0
EGFR_L861Q (UniProt P00533)	0	0	0	0	0	2	3	0	1	0	0	0	0	0	0	0	0	0	0	0
CDK2 (UniProt P24941)	0	0	0	0	0	0	0	0	0	0	0	0	0	0	0	0	0	0	0	0
ALK (UniProt Q9UM73)	0	0	0	0	0	0	0	1	2	0	0	0	0	0	0	0	0	0	0	0
RIPK2 (UniProt O43353)	3	0	0	0	0	3	3	2	2	0	0	0	0	0	0	0	0	0	0	0
DYRK2 (UniProt Q92630)	0	0	0	0	0	3	3	4	4	0	0	0	0	0	0	0	0	0	0	0
MAPK1 (UniProt P28482)	0	0	0	0	0	0	0	0	0	0	0	0	0	0	0	0	0	0	0	0
PRKCA (UniProt P17252)	0	0	0	0	0	0	0	0	0	0	0	0	0	0	0	0	0	0	0	0
LCK (UniProt P06239)	0	0	0	0	0	0	0	0	0	0	0	0	0	0	0	0	0	0	0	0
SYK (UniProt P43405)	0	0	0	0	0	0	0	0	0	0	0	0	0	0	0	0	0	0	0	0
TYK2 (UniProt P29597)	0	0	0	0	0	0	3	0	1	0	0	0	0	0	0	0	0	0	0	0
FGFR1 (UniProt P11362)	0	0	0	0	0	0	2	4	1	0	0	0	0	0	0	0	0	0	0	0
DYRK1B (UniProt Q9Y463)	0	0	0	0	0	0	0	2	1	0	0	0	0	0	0	0	0	0	0	0
ERN1 (UniProt O75460)	0	0	0	0	0	0	0	2	1	0	0	0	0	0	0	0	0	0	0	0
RPS6KA1 (UniProt Q15418)	0	0	0	0	0	0	0	0	0	0	0	0	0	0	0	0	0	0	0	0

Complete entries from above. Values in the order: number of time points [1] | number of time points (Cediranib (maleate)) | number of time points (Cediranib) | number of time points [2] | number of time points (Dehydrocorydaline) | number of time points [3] | number of time points (GAK inhibitor 49) | number of time points (Cabozantinib (S-malate)) | number of time points (Cabozantinib) | number of time points (KN-93 (hydrochloride)) | number of time points (KN-93 (phosphate)) | number of time points (KN-92 (hydrochloride)) | number of time points (KN-92 (phosphate)) | number of time points (AX-024 hydrochloride) | number of time points [4] | number of time points (Ilaprazole (sodium)) | number of time points (Ilaprazole) | number of time points (PLX5622 (hemifumarate)) | number of time points [5] | number of time points [6]
CDK2 (UniProt P24941) is entered as 0 | 0 | 0 | 0 | 0 | 0 | 0 | 0 | 0 | 0 | 0 | 0 | 0 | 0 | 0 | 0 | 0 | 0 | 0 | 0
RPS6KA1 (UniProt Q15418) is entered as 0 | 0 | 0 | 0 | 0 | 0 | 0 | 0 | 0 | 0 | 0 | 0 | 0 | 0 | 0 | 0 | 0 | 0 | 0 | 0

Later entries

Target	number of time points [1]	number of time points (Cediranib (maleate))	number of time points (Cediranib)	number of time points [2]	number of time points (Dehydrocorydaline)	number of time points [3]	number of time points (GAK inhibitor 49)	number of time points (Cabozantinib (S-malate))	number of time points (Cabozantinib)	number of time points (KN-93 (hydrochloride))	number of time points (KN-93 (phosphate))	number of time points (KN-92 (hydrochloride))	number of time points (KN-92 (phosphate))	number of time points (AX-024 hydrochloride)	number of time points [4]	number of time points (Ilaprazole (sodium))	number of time points (Ilaprazole)	number of time points (PLX5622 (hemifumarate))	number of time points [5]	number of time points [6]
PIK4CB (UniProt Q9UBF8)	0	0	0	0	0	2	0	2	1	0	0	0	0	0	0	0	0	0	0	0
ARAF (UniProt P10398)	0	0	0	0	0	0	0	1	0	0	0	0	0	0	0	0	0	0	0	0
LMTK2 (UniProt Q8IWU2)	0	0	0	0	0	0	0	2	0	0	0	0	0	0	0	0	0	0	0	0
EGFR_L858R (UniProt P00533)	0	0	0	0	0	1	0	0	1	0	0	0	0	0	0	0	0	0	0	0
PTK2 (UniProt Q05397)	0	0	0	0	0	0	0	2	1	0	0	0	0	0	0	0	0	0	0	0
EGFR_T790M (UniProt P00533)	0	0	0	0	0	0	0	0	0	0	0	0	0	0	0	0	0	0	0	0
LIMK1 (UniProt P53667)	0	0	0	0	0	3	3	2	3	0	0	0	0	0	0	0	0	0	0	0
STK24 (UniProt Q9Y6E0)	0	0	0	0	0	0	0	1	0	0	0	0	0	0	0	0	0	0	0	0
CDK6 (UniProt Q00534)	0	0	0	0	0	0	0	2	0	0	0	0	0	0	0	0	0	0	0	0
LYN (UniProt P07948)	0	0	0	0	0	0	0	0	0	0	0	0	0	0	0	0	0	0	0	0
RAF1 (UniProt P04049)	0	0	0	0	0	2	2	0	2	0	0	0	0	0	0	0	0	0	0	0
EGFR_G719S_T790M (UniProt P00533)	0	0	0	0	0	1	2	0	0	0	0	0	0	0	0	0	0	0	0	0
CDK3 (UniProt Q00526)	0	0	0	0	0	0	0	0	0	0	0	0	0	0	0	0	0	0	0	0
FGR (UniProt P09769)	0	0	0	0	0	0	0	0	0	0	0	0	0	0	0	0	0	0	0	0
YES1 (UniProt P07947)	0	0	0	0	0	1	0	0	1	0	0	0	0	0	0	0	0	0	0	0

Reference: the supplement of paper PMC12823440, “Inhibitors supercharge kinase turnover through native proteolytic circuits” (Nature, 2025)
